This is one part of the list.
Assays:
Experiment in all cases: glycan array binding signal (z-score within array); higher = stronger binding
Conditions in all cases: glycan notation: IUPAC condensed, linker removed
[1] = target: Gal(b1-3)GlcNAc(b1-6)GalNAc
How it was run: (§1)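 Negative Z-scores can be read as non-binding. The Z-score is calculated within each array and then averaged across arrays of one protein sequence at different concentrations or buffers and across linkers. Arrays, 3228 in all, were curated from the Consortium for Functional Glycomics database and kept only where the protein sequence was available.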

[2] = target: Gal(b1-3)GlcNAc(b1-6)[Gal(b1-3)]GalNAc
How it was run: as §1

[3] = target: Gal(b1-3)GlcNAc6S
How it was run: as §1

[4] = target: Gal(b1-3)[Fuc(a1-4)]GlcNAc
How it was run: as §1

[5] = target: Gal(b1-3)[Fuc(a1-4)]GlcNAc(b1-2)Man
How it was run: as §1

[6] = target: Gal(b1-3)[Fuc(a1-4)]GlcNAc(b1-2)Man(a1-3)[Gal(b1-3)[Fuc(a1-4)]GlcNAc(b1-2)Man(a1-6)]Man(b1-4)GlcNAc(b1-4)[Fuc(a1-6)]GlcNAc
How it was run: as §1

[7] = target: Gal(b1-3)[Fuc(a1-4)]GlcNAc(b1-3)Gal(b1-3)[Fuc(a1-4)]GlcNAc
How it was run: as §1

[8] = target: Gal(b1-3)[Fuc(a1-4)]GlcNAc(b1-3)Gal(b1-4)[Fuc(a1-3)]GlcNAc
How it was run: as §1

[9] = target: Gal(b1-3)[Fuc(a1-4)]GlcNAc(b1-6)GalNAc
How it was run: as §1

[10] = target: Gal(b1-3)[GlcNAc(b1-6)]GalNAc
How it was run: as §1

[11] = target: Gal(b1-3)[Neu5Ac(a2-6)]GalNAc
How it was run: as §1

[12] = target: Gal(b1-3)[Neu5Ac(a2-6)]GlcNAc(b1-4)Gal(b1-4)Glc
How it was run: as §1

[13] = target: Gal(b1-3)[Neu5Ac(b2-6)]GalNAc
How it was run: as §1

[14] = target: Gal(b1-4)Gal
How it was run: as §1

[15] = target: Gal(b1-4)GalNAc(a1-3)[Fuc(a1-2)]Gal(b1-4)GlcNAc
How it was run: as §1

[16] = target: Gal(b1-4)GalNAc(b1-3)[Fuc(a1-2)]Gal(b1-4)GlcNAc
How it was run: as §1

[17] = target: Gal(b1-4)Glc
How it was run: as §1

[18] = target: Gal(b1-4)Glc6S
How it was run: as §1

[19] = target: Gal(b1-4)GlcNAc
How it was run: as §1

[20] = target: Gal(b1-4)GlcNAc(a1-6)Gal(b1-4)GlcNAc
How it was run: as §1

[21] = target: Gal(b1-4)GlcNAc(b1-2)Man
How it was run: as §1

[22] = target: Gal(b1-4)GlcNAc(b1-2)Man(a1-3)Man(b1-4)GlcNAc(b1-4)GlcNAc
How it was run: as §1

[23] = target: Gal(b1-4)GlcNAc(b1-2)Man(a1-3)[Gal(b1-4)GlcNAc(b1-2)Man(a1-6)]Man(b1-4)GlcNAc(b1-4)GlcNAc
How it was run: as §1

[24] = target: Gal(b1-4)GlcNAc(b1-2)Man(a1-3)[Gal(b1-4)GlcNAc(b1-2)Man(a1-6)]Man(b1-4)GlcNAc(b1-4)[Fuc(a1-6)]GlcNAc
How it was run: as §1

[25] = target: Gal(b1-4)GlcNAc(b1-2)Man(a1-3)[Gal(b1-4)GlcNAc(b1-2)Man(a1-6)][Gal(b1-4)GlcNAc(b1-4)]Man(b1-4)GlcNAc(b1-4)[Fuc(a1-6)]GlcNAc
How it was run: as §1

[26] = target: Gal(b1-4)GlcNAc(b1-2)Man(a1-3)[Gal(b1-4)GlcNAc(b1-2)Man(a1-6)][GlcNAc(b1-4)]Man(b1-4)GlcNAc(b1-4)[Fuc(a1-6)]GlcNAc
How it was run: as §1

[27] = target: Gal(b1-4)GlcNAc(b1-2)Man(a1-3)[GlcNAc(b1-2)Man(a1-6)]Man(b1-4)GlcNAc(b1-4)GlcNAc
How it was run: as §1

[28] = target: Gal(b1-4)GlcNAc(b1-2)Man(a1-3)[GlcNAc(b1-4)][Gal(b1-4)GlcNAc(b1-2)Man(a1-6)]Man(b1-4)GlcNAc(b1-4)GlcNAc
How it was run: as §1

[29] = target: Gal(b1-4)GlcNAc(b1-2)Man(a1-3)[Man(a1-6)]Man(b1-4)GlcNAc(b1-4)GlcNAc
How it was run: as §1

[30] = target: Gal(b1-4)GlcNAc(b1-2)Man(a1-6)Man(b1-4)GlcNAc(b1-4)GlcNAc
How it was run: as §1

[31] = target: Gal(b1-4)GlcNAc(b1-2)Man(a1-6)[GlcNAc(b1-2)Man(a1-3)]Man(b1-4)GlcNAc(b1-4)GlcNAc
How it was run: as §1

[32] = target: Gal(b1-4)GlcNAc(b1-2)Man(a1-6)[Man(a1-3)]Man(b1-4)GlcNAc(b1-4)GlcNAc
How it was run: as §1

[33] = target: Gal(b1-4)GlcNAc(b1-2)[Gal(b1-4)GlcNAc(b1-4)]Man(a1-3)[Gal(b1-4)GlcNAc(b1-2)Man(a1-6)]Man(b1-4)GlcNAc(b1-4)GlcNAc
How it was run: as §1

[34] = target: Gal(b1-4)GlcNAc(b1-2)[Gal(b1-4)GlcNAc(b1-4)]Man(a1-3)[Gal(b1-4)GlcNAc(b1-2)[Gal(b1-4)GlcNAc(b1-6)]Man(a1-6)]Man(b1-4)GlcNAc(b1-4)GlcNAc
How it was run: as §1

[35] = target: Gal(b1-4)GlcNAc(b1-2)[Gal(b1-4)GlcNAc(b1-4)]Man(a1-3)[GlcNAc(b1-4)][Gal(b1-4)GlcNAc(b1-2)Man(a1-6)]Man(b1-4)GlcNAc(b1-4)GlcNAc
How it was run: as §1

[36] = target: Gal(b1-4)GlcNAc(b1-2)[Gal(b1-4)GlcNAc(b1-4)]Man(a1-3)[GlcNAc(b1-4)][Gal(b1-4)GlcNAc(b1-2)[Gal(b1-4)GlcNAc(b1-6)]Man(a1-6)]Man(b1-4)GlcNAc(b1-4)GlcNAc
How it was run: as §1

[37] = target: Gal(b1-4)GlcNAc(b1-2)[Gal(b1-4)GlcNAc(b1-6)]Man(a1-6)[Gal(b1-4)GlcNAc(b1-2)Man(a1-3)]Man(b1-4)GlcNAc(b1-4)GlcNAc
How it was run: as §1

B1: SUN4 (Saccharomyces cerevisiae), P53616 (protein)
chain: MGSSHHHHHHSSGLVPRGSHNGSIYGDLADFSGPYEKFEDGTIPCGQFPSGQGVIPISWLDEGGWSGVENTDTSTGGSCKEGSYCSYACQPGMSKTQWPSDQPSDGRSIGGLLCKDGYLYRSNTDTDYLCEWGVDAAYVVSELSNDVAICRTDYPGTENMVIPTYVQAGDSLPLTVVDQDTYYTWQGLKTSAQYYVNNAGISVEDACVWGSSSSGVGNWAPLNFGAGSSDGVAYLSLIPNPNNGNALNFNVKIVAADDSSTVNGECIYENGSFSGGSDGCTVSVTAGKAKFVLYN
- glycan array binding signal (z-score) [1]: -0.048
- glycan array binding signal (z-score) [2]: 0.101
- glycan array binding signal (z-score) [3]: 0.534
- glycan array binding signal (z-score) [4]: -0.633
- glycan array binding signal (z-score) [5]: 0.706
- glycan array binding signal (z-score) [6]: 0.905
- glycan array binding signal (z-score) [7]: -0.522
- glycan array binding signal (z-score) [8]: 0.705
- glycan array binding signal (z-score) [9]: 0.835
- glycan array binding signal (z-score) [10]: -0.857
- glycan array binding signal (z-score) [11]: -0.568
- glycan array binding signal (z-score) [12]: -0.066
- glycan array binding signal (z-score) [13]: 0.289
- glycan array binding signal (z-score) [14]: 0.339
- glycan array binding signal (z-score) [15]: -0.574
- glycan array binding signal (z-score) [16]: -0.726
- glycan array binding signal (z-score) [17]: -0.225
- glycan array binding signal (z-score) [18]: -0.03
- glycan array binding signal (z-score) [19]: -0.163
- glycan array binding signal (z-score) [20]: -0.089
- glycan array binding signal (z-score) [21]: 1.8
- glycan array binding signal (z-score) [22]: -1.26
- glycan array binding signal (z-score) [23]: -0.31
- glycan array binding signal (z-score) [24]: 0.829
- glycan array binding signal (z-score) [25]: -0.052
- glycan array binding signal (z-score) [26]: -1.24
- glycan array binding signal (z-score) [27]: -0.784
- glycan array binding signal (z-score) [28]: -0.726
- glycan array binding signal (z-score) [29]: 0.072
- glycan array binding signal (z-score) [30]: -1.01
- glycan array binding signal (z-score) [31]: -0.75
- glycan array binding signal (z-score) [32]: -0.198
- glycan array binding signal (z-score) [33]: 0.116
- glycan array binding signal (z-score) [34]: -0.984
- glycan array binding signal (z-score) [35]: 0.208
- glycan array binding signal (z-score) [36]: -0.203
- glycan array binding signal (z-score) [37]: -0.167

Reference: the supplement of paper PMC8728848
